{"source": "patent US10047095B2", "about": "“sGC stimulators” (IRONWOOD PHARMACEUTICALS, INC., priority 2014, dated 2018)", "origin": "cited, not measured here", "key": {"[1]": {"tested_on": "patients with BMD", "conditions": "single oral dose of 20 mg; double-blind placebo-controlled crossover trial; cited from earlier work"}, "[2]": {"tested_on": "mdx mouse", "conditions": "cited from earlier work"}}, "note": "At least one compound was matched to its structure with a doubt left."}
{"smiles": "CN1CC(=O)N2[C@H](c3ccc4c(c3)OCO4)c3[nH]c4ccccc4c3C[C@@H]2C1=O", "note": "[tadalafil]", "values": [{"measurement": "normal blood flow regulation", "setting": "[1]", "result": "restored in eight of nine patients"}, {"measurement": "muscle ischemia, injury and fatigue after a brief bout of exercise", "setting": "[2]", "result": "alleviate muscle ischemia"}]}
